Data reported in the supplement of paper PMC10849652.
The list shows a part of the results.

Protein sequences, listed by entry. Tags and fused reporters are not part of them. Lines headed by an entry give the natural chain unless they say otherwise; changes in a name come on top.
UniProt P98175: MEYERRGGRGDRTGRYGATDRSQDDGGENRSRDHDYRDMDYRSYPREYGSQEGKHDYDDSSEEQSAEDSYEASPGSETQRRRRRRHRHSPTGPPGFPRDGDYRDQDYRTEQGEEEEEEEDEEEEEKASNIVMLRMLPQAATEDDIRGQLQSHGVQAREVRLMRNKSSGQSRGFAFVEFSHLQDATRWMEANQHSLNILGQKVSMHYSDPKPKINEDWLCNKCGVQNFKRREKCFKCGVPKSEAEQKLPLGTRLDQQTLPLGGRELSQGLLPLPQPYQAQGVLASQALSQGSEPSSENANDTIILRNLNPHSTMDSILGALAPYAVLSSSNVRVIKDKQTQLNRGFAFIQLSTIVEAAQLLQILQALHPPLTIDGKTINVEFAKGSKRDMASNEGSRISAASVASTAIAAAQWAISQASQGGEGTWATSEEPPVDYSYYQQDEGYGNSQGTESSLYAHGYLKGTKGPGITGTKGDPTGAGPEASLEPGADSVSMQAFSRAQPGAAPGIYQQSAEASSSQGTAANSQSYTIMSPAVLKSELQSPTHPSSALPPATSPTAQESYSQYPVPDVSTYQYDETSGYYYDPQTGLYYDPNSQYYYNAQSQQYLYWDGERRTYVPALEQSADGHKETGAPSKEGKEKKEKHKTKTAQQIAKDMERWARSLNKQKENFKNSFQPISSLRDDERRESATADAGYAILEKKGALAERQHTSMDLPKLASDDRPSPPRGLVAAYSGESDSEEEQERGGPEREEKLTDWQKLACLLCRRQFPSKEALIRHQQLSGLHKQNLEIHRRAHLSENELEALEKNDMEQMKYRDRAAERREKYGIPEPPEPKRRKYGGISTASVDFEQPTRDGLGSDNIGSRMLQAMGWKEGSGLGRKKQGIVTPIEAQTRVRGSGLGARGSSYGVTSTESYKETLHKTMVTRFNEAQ
UniProt O43665: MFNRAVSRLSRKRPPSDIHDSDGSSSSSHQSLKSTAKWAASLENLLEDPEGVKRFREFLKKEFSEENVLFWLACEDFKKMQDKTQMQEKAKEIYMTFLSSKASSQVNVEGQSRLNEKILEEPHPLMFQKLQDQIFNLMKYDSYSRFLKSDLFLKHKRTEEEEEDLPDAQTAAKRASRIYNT
UniProt Q9Y3B8: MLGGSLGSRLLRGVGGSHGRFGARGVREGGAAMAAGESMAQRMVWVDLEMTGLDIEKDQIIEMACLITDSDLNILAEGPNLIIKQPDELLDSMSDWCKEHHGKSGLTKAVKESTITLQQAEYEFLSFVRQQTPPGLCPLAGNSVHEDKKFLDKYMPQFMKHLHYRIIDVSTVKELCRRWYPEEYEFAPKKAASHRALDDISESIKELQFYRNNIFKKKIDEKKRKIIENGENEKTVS
UniProt Q9P260: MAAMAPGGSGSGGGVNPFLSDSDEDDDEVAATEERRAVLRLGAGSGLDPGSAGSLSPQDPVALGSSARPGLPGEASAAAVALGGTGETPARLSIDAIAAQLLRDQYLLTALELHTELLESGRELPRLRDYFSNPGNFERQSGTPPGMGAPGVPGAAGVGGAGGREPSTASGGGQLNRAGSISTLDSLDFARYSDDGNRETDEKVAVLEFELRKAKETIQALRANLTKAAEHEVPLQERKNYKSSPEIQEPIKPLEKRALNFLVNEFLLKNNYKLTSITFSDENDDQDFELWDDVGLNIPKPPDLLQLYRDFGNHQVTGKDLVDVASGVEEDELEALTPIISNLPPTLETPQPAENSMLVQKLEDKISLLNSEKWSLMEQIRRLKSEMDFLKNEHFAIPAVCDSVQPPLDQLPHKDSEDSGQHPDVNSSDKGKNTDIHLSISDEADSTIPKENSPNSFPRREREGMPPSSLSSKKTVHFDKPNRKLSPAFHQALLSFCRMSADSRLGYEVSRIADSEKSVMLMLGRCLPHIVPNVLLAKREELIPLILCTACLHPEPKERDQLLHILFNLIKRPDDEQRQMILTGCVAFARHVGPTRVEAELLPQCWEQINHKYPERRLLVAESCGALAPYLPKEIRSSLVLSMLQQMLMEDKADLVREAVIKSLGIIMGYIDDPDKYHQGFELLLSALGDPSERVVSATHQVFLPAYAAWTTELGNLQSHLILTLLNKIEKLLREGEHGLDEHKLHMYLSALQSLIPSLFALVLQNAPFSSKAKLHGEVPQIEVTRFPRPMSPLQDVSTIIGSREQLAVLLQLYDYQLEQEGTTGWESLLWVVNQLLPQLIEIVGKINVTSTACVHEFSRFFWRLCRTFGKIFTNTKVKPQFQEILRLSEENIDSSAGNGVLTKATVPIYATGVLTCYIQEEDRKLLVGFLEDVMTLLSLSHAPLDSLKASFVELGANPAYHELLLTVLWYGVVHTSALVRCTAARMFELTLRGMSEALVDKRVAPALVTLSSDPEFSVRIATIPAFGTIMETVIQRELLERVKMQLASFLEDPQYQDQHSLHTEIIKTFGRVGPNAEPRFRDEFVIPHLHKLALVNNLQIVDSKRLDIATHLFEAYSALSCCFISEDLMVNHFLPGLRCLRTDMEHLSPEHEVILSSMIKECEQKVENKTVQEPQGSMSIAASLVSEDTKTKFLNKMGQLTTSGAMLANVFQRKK
UniProt Q15293: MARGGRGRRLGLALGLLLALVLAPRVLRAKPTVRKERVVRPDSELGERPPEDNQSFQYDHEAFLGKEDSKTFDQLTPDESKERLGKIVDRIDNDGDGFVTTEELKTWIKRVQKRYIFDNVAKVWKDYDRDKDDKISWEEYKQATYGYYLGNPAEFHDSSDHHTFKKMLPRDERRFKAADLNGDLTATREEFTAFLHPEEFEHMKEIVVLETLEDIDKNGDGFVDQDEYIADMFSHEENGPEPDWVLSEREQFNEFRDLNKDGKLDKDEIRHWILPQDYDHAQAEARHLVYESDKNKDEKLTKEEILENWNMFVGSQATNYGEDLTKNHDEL
UniProt Q8WZ73: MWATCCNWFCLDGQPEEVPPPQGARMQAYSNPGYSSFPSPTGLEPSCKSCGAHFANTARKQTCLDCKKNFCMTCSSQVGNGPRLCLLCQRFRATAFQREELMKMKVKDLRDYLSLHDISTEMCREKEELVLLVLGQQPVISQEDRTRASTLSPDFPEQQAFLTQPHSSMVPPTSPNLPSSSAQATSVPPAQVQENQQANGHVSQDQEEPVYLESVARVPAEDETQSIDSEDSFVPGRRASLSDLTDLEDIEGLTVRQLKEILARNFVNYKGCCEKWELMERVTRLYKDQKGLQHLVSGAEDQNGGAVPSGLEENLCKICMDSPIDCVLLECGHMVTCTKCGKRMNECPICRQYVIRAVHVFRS
UniProt Q96D71: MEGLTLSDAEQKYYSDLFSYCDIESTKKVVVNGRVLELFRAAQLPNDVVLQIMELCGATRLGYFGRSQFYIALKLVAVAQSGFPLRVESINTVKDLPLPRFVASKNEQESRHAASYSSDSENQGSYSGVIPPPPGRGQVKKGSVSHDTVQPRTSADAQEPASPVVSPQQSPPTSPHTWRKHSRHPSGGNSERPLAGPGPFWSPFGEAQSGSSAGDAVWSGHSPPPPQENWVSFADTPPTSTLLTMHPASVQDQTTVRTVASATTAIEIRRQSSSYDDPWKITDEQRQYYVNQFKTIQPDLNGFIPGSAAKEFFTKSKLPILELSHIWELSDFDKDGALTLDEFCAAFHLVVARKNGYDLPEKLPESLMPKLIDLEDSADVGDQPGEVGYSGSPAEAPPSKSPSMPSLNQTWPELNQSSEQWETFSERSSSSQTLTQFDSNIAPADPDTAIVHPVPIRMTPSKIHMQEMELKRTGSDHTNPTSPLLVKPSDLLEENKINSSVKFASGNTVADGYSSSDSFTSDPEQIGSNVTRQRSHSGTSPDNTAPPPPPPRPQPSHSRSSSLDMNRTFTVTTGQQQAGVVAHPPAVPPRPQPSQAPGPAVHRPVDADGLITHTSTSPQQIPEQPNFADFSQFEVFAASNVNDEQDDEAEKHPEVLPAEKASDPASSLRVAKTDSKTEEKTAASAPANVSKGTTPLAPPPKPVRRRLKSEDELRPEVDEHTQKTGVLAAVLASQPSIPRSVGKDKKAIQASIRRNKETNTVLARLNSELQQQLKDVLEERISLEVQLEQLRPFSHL
UniProt Q04864: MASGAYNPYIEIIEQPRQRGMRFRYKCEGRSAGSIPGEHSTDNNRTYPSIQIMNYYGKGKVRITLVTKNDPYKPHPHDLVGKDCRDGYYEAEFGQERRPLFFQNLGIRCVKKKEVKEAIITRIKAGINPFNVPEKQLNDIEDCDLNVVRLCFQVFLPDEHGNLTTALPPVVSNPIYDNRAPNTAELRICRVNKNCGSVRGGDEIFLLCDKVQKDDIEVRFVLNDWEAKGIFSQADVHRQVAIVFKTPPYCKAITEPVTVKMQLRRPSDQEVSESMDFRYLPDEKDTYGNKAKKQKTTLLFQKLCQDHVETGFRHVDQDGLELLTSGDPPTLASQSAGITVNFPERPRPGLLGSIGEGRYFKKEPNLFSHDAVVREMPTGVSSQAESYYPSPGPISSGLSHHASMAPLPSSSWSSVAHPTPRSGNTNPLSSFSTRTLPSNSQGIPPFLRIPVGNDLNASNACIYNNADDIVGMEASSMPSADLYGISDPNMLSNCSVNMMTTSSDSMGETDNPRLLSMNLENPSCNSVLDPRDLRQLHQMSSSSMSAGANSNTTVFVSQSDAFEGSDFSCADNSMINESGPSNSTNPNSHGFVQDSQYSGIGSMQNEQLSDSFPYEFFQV
UniProt Q9BYM8: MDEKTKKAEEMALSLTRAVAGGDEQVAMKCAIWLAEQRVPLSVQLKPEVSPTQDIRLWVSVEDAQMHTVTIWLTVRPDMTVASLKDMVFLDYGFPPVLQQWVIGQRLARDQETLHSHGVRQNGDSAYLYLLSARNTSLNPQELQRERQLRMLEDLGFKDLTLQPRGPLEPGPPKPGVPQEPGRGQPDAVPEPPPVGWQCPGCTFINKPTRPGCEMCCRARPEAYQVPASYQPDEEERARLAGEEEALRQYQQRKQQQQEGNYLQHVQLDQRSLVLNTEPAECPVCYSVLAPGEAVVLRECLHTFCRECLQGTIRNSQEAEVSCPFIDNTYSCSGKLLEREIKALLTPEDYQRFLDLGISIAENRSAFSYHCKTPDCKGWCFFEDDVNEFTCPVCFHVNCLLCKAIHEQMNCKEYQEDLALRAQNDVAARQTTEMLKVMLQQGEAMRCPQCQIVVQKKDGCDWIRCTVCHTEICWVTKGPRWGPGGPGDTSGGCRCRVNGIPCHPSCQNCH
UniProt P06400: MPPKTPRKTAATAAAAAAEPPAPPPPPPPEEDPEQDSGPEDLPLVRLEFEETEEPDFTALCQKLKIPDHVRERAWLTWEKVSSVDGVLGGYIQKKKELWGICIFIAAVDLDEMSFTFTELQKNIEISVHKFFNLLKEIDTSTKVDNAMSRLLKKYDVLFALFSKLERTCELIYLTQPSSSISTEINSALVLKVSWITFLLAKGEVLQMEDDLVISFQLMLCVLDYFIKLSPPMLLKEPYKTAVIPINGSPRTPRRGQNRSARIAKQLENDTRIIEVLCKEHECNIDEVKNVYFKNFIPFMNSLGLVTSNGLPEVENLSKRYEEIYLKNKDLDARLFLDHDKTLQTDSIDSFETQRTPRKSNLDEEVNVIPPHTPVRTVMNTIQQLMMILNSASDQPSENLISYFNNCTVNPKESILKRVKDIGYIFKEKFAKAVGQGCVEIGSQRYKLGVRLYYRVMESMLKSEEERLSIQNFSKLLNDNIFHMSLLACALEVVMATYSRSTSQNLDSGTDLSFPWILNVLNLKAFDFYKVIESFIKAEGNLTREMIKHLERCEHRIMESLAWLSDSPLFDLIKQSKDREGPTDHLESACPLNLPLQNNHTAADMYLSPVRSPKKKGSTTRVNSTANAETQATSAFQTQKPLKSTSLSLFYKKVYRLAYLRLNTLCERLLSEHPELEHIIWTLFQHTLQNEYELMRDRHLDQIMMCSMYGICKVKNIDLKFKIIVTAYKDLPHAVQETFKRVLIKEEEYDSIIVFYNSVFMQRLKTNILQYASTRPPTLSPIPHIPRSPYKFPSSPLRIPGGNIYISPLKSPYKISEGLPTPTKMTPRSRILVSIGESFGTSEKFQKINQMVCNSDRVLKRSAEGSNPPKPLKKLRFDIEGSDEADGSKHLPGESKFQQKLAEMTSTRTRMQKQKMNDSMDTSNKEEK

Columns and labels:
Assay in all cases: log2 fold change, soluble protein after heating vs DMSO (PISA); higher = thermal stabilisation; K562 lysate, 10 uM; active = over 0.2 and 3.5 SD of the protein, either way, in both replicates (recomputed)
[1] = compound: CN1CC[C@H](c2c(O)cc(O)c3c(=O)cc(-c4ccccc4Cl)oc23)[C@H](O)C1 [alvocidib]
In short: (§1)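 Dounce homogenisation of K562 pellets in PBS pH 7.4 with 1 mM MgCl2 produced a crude extract, used at 1 mg/mL protein. Exposure to 10 μM compound lasted 30 min, and aliquots were then heated for 3 min across 48°C-58°C, pooled and brought to 0.5% NP-40 at 4°C. The supernatant after 21,000xg for 90 min was quantified by TMTpro 16plex LC-MS/MS with channel sums equalised. Duplicate values are given as log-two fold change in thermal stability relative to solvent controls.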

[2] = compound: CN1CCc2c(c3ccccc3n2Cc2ccc(C(=O)NO)cc2)C1 [Tubastatin A]
In short: as §1

[3] = compound: CNC(=O)C1=CC=CC=C1NC2=NC(=NC=C2Cl)NC3=C(C=C(C=C3)N4CCOCC4)OC
In short: as §1

[4] = compound: CNC(=O)c1ccc(Nc2ncc(C(F)(F)F)c(NCc3nccnc3N(C)S(C)(=O)=O)n2)cc1 [defactinib]
In short: as §1

[5] = compound: CNc1nc(-c2ccc3c(N)n[nH]c3c2)cc(N2C[C@@H](C(=O)NC3CCCCC3)CC[C@H]2C)n1
In short: as §1

[6] = compound: COC(=O)N[C@@H](C)CNc1nccc(-c2cn(C(C)C)nc2-c2cc(Cl)cc(NS(C)(=O)=O)c2F)n1 [encorafenib]
In short: as §1

[7] = compound: COC(=O)[C@H](CCSC)NC(=O)C1=C(C=C(C=C1)NC[C@H](CS)N)C2=CC=CC=C2
In short: as §1

[8] = compound: COc1cc(Nc2ncc3c(n2)-c2ccc(Cl)cc2C(c2c(F)cccc2OC)=NC3)ccc1C(=O)O [alisertib]
In short: as §1

[9] = compound: COc1cc2nc(-c3cc(F)ccc3O)nc(N[C@@H]3CNC[C@H]3C(C)(C)O)c2cc1OC
In short: as §1

[10] = compound: COc1cc2ncnc(Nc3ccc(F)c(Cl)c3)c2cc1OCCCN1CCOCC1 [gefitinib]
In short: as §1

[11] = compound: CS(=O)(=O)CCNCc1ccc(-c2ccc3ncnc(Nc4ccc(OCc5cccc(F)c5)c(Cl)c4)c3c2)o1 [lapatinib]
In short: as §1

[12] = compound: CS(=O)(=O)N1CCN(Cc2cc3nc(-c4cccc5[nH]ncc45)nc(N4CCOCC4)c3s2)CC1 [pictilisib]
In short: as §1

[13] = compound: C[C@@H](Oc1cc(-c2cnn(C3CCNCC3)c2)cnc1N)c1c(Cl)ccc(F)c1Cl [crizotinib]
In short: as §1

[14] = compound: C[C@H](C1=CC=C(C=C1)C(=O)NC2=C3C=CNC3=NC=C2)N
In short: as §1

[15] = compound: C[C@H](Nc1ncnc2nc[nH]c12)c1cc2cccc(Cl)c2c(=O)n1-c1ccccc1 [duvelisib]
In short: as §1

[16] = compound: Cc1cc(Nc2cc(CN3CCOCC3)c3nc(C)c(Cc4ccc(Cl)cc4F)n3n2)n[nH]1 [gandotinib]
In short: as §1

[17] = compound: Cc1cc(Nc2cc(N3CCN(C)CC3)nc(Sc3ccc(NC(=O)C4CC4)cc3)n2)n[nH]1 [tozasertib]
In short: as §1

[18] = compound: Cc1ccc(-n2nc(C(C)(C)C)cc2NC(=O)Nc2ccc(OCCN3CCOCC3)c3ccccc23)cc1 [doramapimod]
In short: as §1

[19] = compound: Cc1ccc(NC(=O)c2ccc(CN3CC[C@H](N(C)C)C3)c(C(F)(F)F)c2)cc1Nc1nccc(-c2cncnc2)n1 [bafetinib]
In short: as §1

[20] = compound: Cc1cccc(CC(=O)N2CCc3c2ccc(-c2cn(C)c4ncnc(N)c24)c3F)n1
In short: as §1

Measured: log2 fold change

RBBP6 (UniProt Q7Z6E9)
inactive: [1] 0.009 | [2] -0.03 | [3] 0.057 | [4] -0.012 | [5] 0.023 | [6] 0.083 | [7] -0.164 | [8] 0.029 | [9] -0.015 | [10] -0.021 | [11] -0.028 | [12] -0.01 | [13] -0.018 | [14] -0.007 | [15] 0.03 | [16] 0.033 | [17] 0.035 | [18] 0.086 | [19] -0.025 | [20] -0.023

RBM8A (UniProt Q9Y5S9)
active: [14] 0.277
inactive: [1] 0.086 | [2] 0.024 | [3] -0.024 | [4] 0.017 | [5] -0.256 | [6] 0.002 | [7] -0.069 | [8] 0 | [9] -0.062 | [10] -0.024 | [11] 0.01 | [12] 0.017 | [13] 0.135 | [15] -0.014 | [16] -0.209 | [17] 0.06 | [18] -0.038 | [19] -0.017 | [20] -0.2

RERE (UniProt Q9P2R6)
inactive: [1] -0.079 | [2] -0.041 | [3] 0.02 | [4] 0.068 | [5] -0.048 | [6] 0.009 | [7] 0.065 | [8] -0.019 | [9] 0.018 | [10] -0.015 | [11] 0.033 | [12] -0.069 | [13] 0.061 | [14] -0.162 | [15] 0.032 | [16] 0.117 | [17] -0.006 | [18] 0.005 | [19] -0.059 | [20] 0.203

RBM10 isoform 5 (UniProt P98175)
inactive: [1] -0.019 | [2] -0.023 | [3] 0.01 | [4] -0.032 | [5] 0.138 | [6] 0.04 | [7] -0.038 | [8] -0.008 | [9] 0.017 | [10] 0.047 | [11] 0.008 | [12] 0.032 | [13] 0.024 | [14] 0.002 | [15] -0.023 | [16] 0.065 | [17] -0.004 | [18] 0.084 | [19] -0.077 | [20] 0.01

RGS10 (UniProt O43665)
inactive: [1] 0.005 | [2] 0.076 | [3] 0.026 | [4] 0.033 | [5] 0.022 | [6] -0.004 | [7] -0.069 | [8] -0.01 | [9] -0.018 | [10] -0.044 | [11] -0.018 | [12] 0.002 | [13] 0.05 | [14] 0.081 | [15] -0.005 | [16] 0 | [17] -0.04 | [18] -0.053 | [19] 0.039 | [20] -0.062

REXO2 (UniProt Q9Y3B8)
inactive: [1] 0.036 | [2] 0.009 | [3] -0.036 | [4] 0.004 | [5] 0.023 | [6] 0 | [7] -0.02 | [8] 0.015 | [9] 0.014 | [10] -0.03 | [11] -0.038 | [12] -0.032 | [13] 0.047 | [14] 0.028 | [15] 0.019 | [16] -0.05 | [17] 0.061 | [18] -0.026 | [19] -0.019 | [20] -0.076

RELCH isoform 2 (UniProt Q9P260)
inactive: [1] 0.036 | [2] -0.044 | [3] 0.04 | [4] -0.002 | [5] 0.038 | [6] 0.033 | [7] 0.008 | [8] -0.017 | [9] 0.006 | [10] 0.006 | [11] 0.026 | [12] -0.036 | [13] -0.074 | [14] 0.009 | [15] -0.017 | [16] -0.036 | [17] -0.016 | [18] 0.027 | [19] -0.004 | [20] -0.007

RCN1 (UniProt Q15293)
inactive: [1] -0.023 | [2] -0.006 | [3] 0.018 | [4] -0.012 | [5] -0.076 | [6] -0.013 | [7] 0.016 | [8] -0.012 | [9] 0.027 | [10] 0.059 | [11] 0.001 | [12] -0.036 | [13] 0.115 | [14] -0.009 | [15] 0.008 | [16] 0.012 | [17] 0.038 | [18] -0.046 | [19] -0.052 | [20] -0.018

RCC1L (UniProt Q96I51)
inactive: [1] -0.044 | [2] 0.003 | [3] 0.009 | [4] 0.037 | [5] 0.002 | [6] -0.008 | [7] -0.013 | [8] -0.031 | [9] -0.02 | [10] 0.035 | [11] 0.052 | [12] -0.058 | [13] 0.035 | [14] -0.025 | [15] -0.022 | [16] -0.082 | [17] -0.022 | [18] -0.026 | [19] 0.031 | [20] 0.033

Taken from the entries so far (2 entries):
REXO2 (UniProt Q9Y3B8)
inactive: [1] 0.036 | [2] 0.009 | [3] -0.036 | [4] 0.004 | [5] 0.023 | [6] 0 | [7] -0.02 | [8] 0.015 | [9] 0.014 | [10] -0.03 | [11] -0.038 | [12] -0.032 | [13] 0.047 | [14] 0.028 | [15] 0.019 | [16] -0.05 | [17] 0.061 | [18] -0.026 | [19] -0.019 | [20] -0.076

RELCH isoform 2 (UniProt Q9P260)
inactive: [1] 0.036 | [2] -0.044 | [3] 0.04 | [4] -0.002 | [5] 0.038 | [6] 0.033 | [7] 0.008 | [8] -0.017 | [9] 0.006 | [10] 0.006 | [11] 0.026 | [12] -0.036 | [13] -0.074 | [14] 0.009 | [15] -0.017 | [16] -0.036 | [17] -0.016 | [18] 0.027 | [19] -0.004 | [20] -0.007

The list continues:

RFFL (UniProt Q8WZ73)
inactive: [1] -0.01 | [2] 0.159 | [3] -0.007 | [4] 0.112 | [5] 0.097 | [6] -0.002 | [7] -0.103 | [8] -0.067 | [9] 0.197 | [10] 0.037 | [11] -0.052 | [12] -0.088 | [13] -0.031 | [14] -0.038 | [15] 0.061 | [16] 0.01 | [17] -0.062 | [18] 0.021 | [19] 0.009 | [20] 0.104

RCCD1 (UniProt A6NED2)
inactive: [1] -0.055 | [2] -0.011 | [3] -0.033 | [4] 0.044 | [5] 0 | [6] -0.047 | [7] -0.006 | [8] -0.013 | [9] 0.033 | [10] 0.019 | [11] -0.003 | [12] -0.048 | [13] 0.012 | [14] 0.112 | [15] -0.021 | [16] -0.026 | [17] 0.061 | [18] -0.036 | [19] 0.109 | [20] 0.025

REPS1 (UniProt Q96D71)
inactive: [1] -0.025 | [2] -0.018 | [3] 0.002 | [4] 0.045 | [5] -0.013 | [6] 0.007 | [7] 0.106 | [8] -0.012 | [9] -0.001 | [10] 0.02 | [11] 0.008 | [12] -0.007 | [13] -0.022 | [14] -0.051 | [15] -0.01 | [16] 0.037 | [17] -0.015 | [18] 0.026 | [19] -0.028 | [20] 0.064

REL isoform 2 (UniProt Q04864)
active: [14] 0.32
inactive: [1] 0.061 | [2] -0.126 | [3] 0.003 | [4] 0.023 | [5] -0.056 | [6] 0.012 | [7] 0.029 | [8] -0.003 | [9] -0.019 | [10] 0.029 | [11] 0.014 | [12] 0.005 | [13] -0.025 | [15] 0.001 | [16] 0.074 | [17] 0.052 | [18] 0.023 | [19] -0.04 | [20] -0.072

RBCK1 (UniProt Q9BYM8)
inactive: [1] 0.05 | [2] -0.024 | [3] 0.028 | [4] 0 | [5] -0.088 | [6] 0.031 | [7] -0.107 | [8] -0.004 | [9] -0.021 | [10] 0.057 | [11] -0.067 | [12] -0.053 | [13] -0.008 | [14] 0.123 | [15] 0.02 | [16] -0.09 | [17] 0.026 | [18] -0.033 | [19] -0.08 | [20] -0.103

RHEB (UniProt Q15382)
inactive: [1] -0.015 | [2] -0.062 | [3] 0.008 | [4] 0.026 | [5] -0.125 | [6] 0.029 | [7] 0.076 | [8] 0.045 | [9] -0.003 | [10] 0.017 | [11] -0.036 | [12] -0.019 | [13] -0.011 | [14] -0.091 | [15] -0.009 | [16] 0.018 | [17] 0.039 | [18] 0.061 | [19] -0.059 | [20] 0.092

RB1 (UniProt P06400)
inactive: [1] 0 | [2] 0.017 | [3] -0.017 | [4] 0.007 | [5] -0.027 | [6] 0.026 | [7] 0.019 | [8] 0.01 | [9] 0.012 | [10] 0.007 | [11] -0.01 | [12] -0.004 | [13] 0.005 | [14] -0.057 | [15] 0.011 | [16] -0.019 | [17] 0.011 | [18] 0.026 | [19] -0.027 | [20] 0.049
